PubChem BioAssay AID1508597 | Cure First | 2020

- Purpose: 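Knock-downs altering ovarian cancer cell survival with or without PARP inhibitor rucaparib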 (primary screen)
- Cell system: human ovarian carcinoma lines grown from tumours: OCI-P5x (papillary serous) and OCI-C5x (clear cell)
- Reagents: siRNA pool against human genes, 1.25 pmol siRNA per well
- Duration: 72 h or 96 h, depending on the cell culture
- Challenge: rucaparib 20 µM (about IC30) or vehicle, present until read-out
- Rucaparib or vehicle: Vehicle
- Cell line: OCI-P5x (serous)
- Read-out: 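Luminescent ATP-based viability assay read 72 or 96 h after transfection, depending on culture, given as normalised percent viability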
- Reading the numbers: viability, normalised: higher = more viable cells remaining
- Active means: 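Active when normalised viability falls below 80 percent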
- Meaning of the calls: active = viability under 80%; inactive = viability 80% or more
Shown is a random part of the about 2,100 reagents, in one setting of the screen. 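Calls flag viability under 80% in either arm, not effects specific to rucaparib; the reference for percent is not stated.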 Entries without a mark were called inactive. A reagent listed more than once was tested more than once; the source does not tell the runs apart. Not stated in the record: the 100% reference.

| gene | technical replicate | viability, normalised (%) |
| --- | --- | --- |
| DPH3 (diphthamide biosynthesis 3) | 1 | 35.7 (active) |
| DPH3 (diphthamide biosynthesis 3) | 2 | 41.9 (active) |
| DPH3 (diphthamide biosynthesis 3) | 3 | 39.8 (active) |
| PCDHB10 (protocadherin beta 10) | 1 | 61 (active) |
| PCDHB10 (protocadherin beta 10) | 2 | 68.8 (active) |
| PCDHB10 (protocadherin beta 10) | 3 | 132 |
| APPL2 | 1 | 89.8 |
| APPL2 | 2 | 81.2 |
| APPL2 | 3 | 85.6 |
| GRK6 (G protein-coupled receptor kinase 6) | 1 | 99.8 |
| GRK6 (G protein-coupled receptor kinase 6) | 2 | 77.1 (active) |
| GRK6 (G protein-coupled receptor kinase 6) | 3 | 96 |
| TGFB2 (transforming growth factor beta 2) | 1 | 62.7 (active) |
| TGFB2 (transforming growth factor beta 2) | 1 | 83.9 |
| TGFB2 (transforming growth factor beta 2) | 2 | 67.9 (active) |
| TGFB2 (transforming growth factor beta 2) | 2 | 94 |
| TGFB2 (transforming growth factor beta 2) | 3 | 68.3 (active) |
| TGFB2 (transforming growth factor beta 2) | 3 | 87 |
| MAD1L1 (mitotic arrest deficient 1 like 1) | 1 | 78 (active) |
| MAD1L1 (mitotic arrest deficient 1 like 1) | 2 | 74.2 (active) |
| MAD1L1 (mitotic arrest deficient 1 like 1) | 3 | 79 (active) |
| PARP9 (poly(ADP-ribose) polymerase family member 9) | 1 | 41.2 (active) |
| PARP9 (poly(ADP-ribose) polymerase family member 9) | 2 | 64.2 (active) |
| PARP9 (poly(ADP-ribose) polymerase family member 9) | 3 | 78.1 (active) |
| PIKFYVE (phosphoinositide kinase, FYVE-type zinc finger containing) | 1 | 89.4 |
| PIKFYVE (phosphoinositide kinase, FYVE-type zinc finger containing) | 2 | 79.7 (active) |
| PIKFYVE (phosphoinositide kinase, FYVE-type zinc finger containing) | 3 | 77.5 (active) |
| FAM91A1 (family with sequence similarity 91 member A1) | 1 | 48.8 (active) |
| FAM91A1 (family with sequence similarity 91 member A1) | 2 | 59.4 (active) |
| FAM91A1 (family with sequence similarity 91 member A1) | 3 | 67.8 (active) |
| NME3 (NME/NM23 nucleoside diphosphate kinase 3) | 1 | 49.6 (active) |
| NME3 (NME/NM23 nucleoside diphosphate kinase 3) | 1 | 76.6 (active) |
| NME3 (NME/NM23 nucleoside diphosphate kinase 3) | 2 | 60.5 (active) |
| NME3 (NME/NM23 nucleoside diphosphate kinase 3) | 2 | 68.4 (active) |
| NME3 (NME/NM23 nucleoside diphosphate kinase 3) | 3 | 77.5 (active) |
| NME3 (NME/NM23 nucleoside diphosphate kinase 3) | 3 | 45.6 (active) |
| SOX9 (SRY-box transcription factor 9) | 1 | 58.5 (active) |
| SOX9 (SRY-box transcription factor 9) | 2 | 48 (active) |
| SOX9 (SRY-box transcription factor 9) | 3 | 69.4 (active) |

A stretch taken from the entries so far, as a working copy:
| gene | technical replicate | viability, normalised (%) |
| --- | --- | --- |
| TGFB2 (transforming growth factor beta 2) | 2 | 67.9 (active) |
| TGFB2 (transforming growth factor beta 2) | 2 | 94 |
